Measurements reported in PubChem BioAssay AID1159584 (Peter MacCallum Cancer Centre, 2016)

- Test: 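Genes whose loss is lethal only together with E-cadherin loss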 (primary screen)
- System: human MCF10A breast epithelial cells, parental and CDH1-null
- Reagents: siRNA against human genes
- Detection: 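Cell viability by CellTiter-Glo ATP luminescence, each line scaled to the mean of mock wells across plates, then CDH1-null over parental ratio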
- Reading the numbers: CDH1-null / parental viability ratio: higher = CDH1-null cells survive relatively better than parental; CDH1-null viability vs mock: higher = more viable CDH1-null cells
This is one part, drawn at random, of about 18,000 reagents tested. Not all columns of the deposit are shown. The record does not give: the amount of reagent, the time to read-out.

no.	Gene	CDH1-null / parental viability ratio	CDH1-null viability vs mock (fraction of mock)
1	HK2	1.01	1.09
2	RRN3	1.1	0.66
3	PASD1	0.96	0.86
4	SKIDA1	0.69	0.55
5	KRT5	1.07	0.8
6	RBFOX1	1.3	1.25
7	GBP1	1.06	0.9
8	PPIAL4A	1.05	1.23
9	EEF2	0.9	0.74
10	CDC73	1.1	0.97
11	RHOD	0.87	0.9
12	CNN2	1.14	0.89
13	CBLN2	1.58	0.52
14	TMC2	1.15	0.9
15	IFNA14	0.84	0.76
16	FDFT1	0.91	0.79
17	FAM181A	1.2	0.72
18	S100P	0.98	0.39
19	HOXB1	0.98	1.03
20	FAM24A	1.49	1.21
21	WASHC2A	0.98	0.84
22	GABRE	1.53	0.69
23	OR6B2	1.32	0.29
24	OR13A1	1.07	0.87
25	LGI4	0.87	1.1
26	ROPN1L	1.02	0.87
27	PNMA1	1.09	0.96
28	ZNF106	1.17	1.02
29	PDIK1L	1.11	0.9
30	SCAMP5	1.15	0.69
31	OPALIN	0.93	0.68
32	GALNT7	1.1	1.03
33	HUWE1	1.06	0.76
34	COMMD10	0.81	0.64
35	SEC61A2	1.04	0.48
36	NANOS2	1.12	1.04
37	CKMT2	1.28	0.92
38	TLE5	1	0.75
39	BID	1.09	0.98
40	ZWINT	1.53	0.52
41	BSCL2	0.77	0.61
42	KRT85	0.89	0.82
43	GAMT	1.11	1.02
44	PCDHGA2	1.21	0.94
45	SEC61A1	0.84	0.43
46	DTX4	0.95	0.93
47	KBTBD4	1.17	0.34
48	AKIRIN1	1.19	0.92
49	KRABD3	0.85	0.7
50	RABGAP1	1.3	0.87
51	KRTAP19-3	0.89	0.62
52	SAMD4B	0.94	0.32
53	CLPP	0.86	0.57
54	ANXA6	0.92	0.82
55	NECTIN3	0.8	0.66
56	TMUB2	1.34	0.87
57	TIPE2	1	0.94
58	SEC24D	0.98	0.8
59	BACE1	1.53	0.49
60	ING4	0.67	0.44
61	RHPN2	0.9	0.53
62	BCL11B	1.08	0.93
63	ASTN1	1.26	0.58
64	ACTL7A	1.52	0.94
65	DYNLT4	1.21	0.98
66	CELSR1	0.82	0.82
67	C1GALT1	0.89	0.85
68	FSTL5	0.83	0.8
69	C19orf73	0.78	0.64
70	KRTAP10-4	1.14	0.79
71	TSPY2	0.82	0.46
72	RBBP6	1.04	0.78
73	PDLIM1	1.23	0.74
74	CCDC127	0.81	0.9
75	ADGRL1	0.76	0.75
76	NDC80	1.38	0.4
77	CA11	1.12	1.01
78	ZNF451	1.11	0.78
79	C6orf118	1.41	0.9
80	DNAI1	1.13	0.88
81	NR3C1	0.91	0.5
82	INPP4A	1.52	0.67
83	SAXO4	0.9	0.85
84	KLC2	0.71	0.48
85	ELP4	1.09	1.02
86	DUSP3	1.43	1
87	SCIN	1.02	0.59

Laid out differently: 11 of the entries above.
Gene | CDH1-null / parental viability ratio | CDH1-null viability vs mock (fraction of mock)
FAM181A | 1.2 | 0.72
S100P | 0.98 | 0.39
HOXB1 | 0.98 | 1.03
FAM24A | 1.49 | 1.21
WASHC2A | 0.98 | 0.84
GABRE | 1.53 | 0.69
OR6B2 | 1.32 | 0.29
OR13A1 | 1.07 | 0.87
LGI4 | 0.87 | 1.1
ROPN1L | 1.02 | 0.87
PNMA1 | 1.09 | 0.96
